Data as given in PubChem BioAssay AID686938 (Drosophila RNAi Screening Center, 2013).

Assay: 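Knock-downs reducing store-operated calcium influx in Drosophila cells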 (primary screen)
Cell system: Drosophila S2R+ cells
Reagents: long dsRNA against Drosophila genes, about 0.25 µg dsRNA per well, roughly 10,000 cells
Timing: 5 days of knock-down before the calcium assay
Challenge: thapsigargin (SERCA pump blocker) to empty calcium stores; entry signal taken 4 min after adding it
Measured: 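Per-well fluo-4 fluorescence in two replicates, unnormalised, measured in resting cells and 4 min after store depletion by the SERCA blocker thapsigargin; ratio of the two present in few wells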
Reading the numbers: calcium entry signal: higher = stronger calcium signal after store depletion; resting calcium signal: higher = higher resting calcium signal
Units: calcium entry signal in fluorescence units; resting calcium signal in fluorescence units
Hit rule: 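Hit if the duplicate-averaged plate z-score for entry over resting signal is under −3; wells with weak total dye signal (Fmax z < −2) or more than 5 off-targets removed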
Calls: active = strongly reduced calcium entry; inactive = no strong reduction
The screen tested about 23,000 reagents; below is a random part of those with a known target gene and a result. Of all reagents, 75 (0.33%) got an active call. 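Raw plate signals without normalisation; calls rest on plate z-scores that were not deposited; ratio present for only 364 wells.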 Unmarked entries are inactive. Not stated in the record: the dose of the treatment.

Phm [DRSC04639] — calcium entry signal, replicate 1: 3.51e7; resting calcium signal, replicate 1: 1.71e7
Rtnl1 [DRSC00851] — calcium entry signal, replicate 1: 3.83e7; calcium entry signal, replicate 2: 3.49e7; resting calcium signal, replicate 1: 2.06e7; resting calcium signal, replicate 2: 1.71e7
Rtnl1 [DRSC02684] — calcium entry signal, replicate 1: 3.99e7; resting calcium signal, replicate 1: 2.17e7
Rtnl1 [DRSC03122] — calcium entry signal, replicate 1: 4.03e7; resting calcium signal, replicate 1: 2.05e7
Rtnl1 [DRSC21698] — calcium entry signal, replicate 1: 3.72e7; calcium entry signal, replicate 2: 3.84e7; resting calcium signal, replicate 1: 1.99e7; resting calcium signal, replicate 2: 1.73e7
PCNA2 [DRSC02030] — calcium entry signal, replicate 1: 4.57e7; calcium entry signal, replicate 2: 5.69e7; resting calcium signal, replicate 1: 2.05e7; resting calcium signal, replicate 2: 2.29e7
CG34276 [DRSC15811] — calcium entry signal, replicate 1: 3.73e7; calcium entry signal, replicate 2: 3.42e7; resting calcium signal, replicate 1: 1.78e7; resting calcium signal, replicate 2: 6.36e7
CG14829 [DRSC10199] — calcium entry signal, replicate 1: 2.31e7; calcium entry signal, replicate 2: 6.83e7; resting calcium signal, replicate 1: 1.02e7; resting calcium signal, replicate 2: 2.46e7
Or33c [DRSC03388] — calcium entry signal, replicate 1: 2.68e7; calcium entry signal, replicate 2: 1.89e7; resting calcium signal, replicate 1: 1.30e7; resting calcium signal, replicate 2: 8.99e6
mei-S332 [DRSC04704] — calcium entry signal, replicate 1: 2.93e7; resting calcium signal, replicate 1: 1.51e7
otp [DRSC04050] — calcium entry signal, replicate 1: 4.46e7; calcium entry signal, replicate 2: 4.05e7; resting calcium signal, replicate 1: 2.08e7; resting calcium signal, replicate 2: 1.89e7
otp [DRSC04707] — calcium entry signal, replicate 1: 4.44e7; calcium entry signal, replicate 2: 4.46e7; resting calcium signal, replicate 1: 2.09e7; resting calcium signal, replicate 2: 1.83e7
